Patent US10688099B2, “Methods for modulating the amount of RNA transcripts” (PTC Therapeutics, Inc., priority 2013, dated 2020)
This continues a long series; more values of the same kind are listed elsewhere.

System: RNA isoforms in PNN 1-46 SMA type I patient-derived fibroblasts
Experiment: RNA Abundance Modulation (RNA isoform abundance, iFPM, HiSeq RNA sequencing)
Format: cell-based, human
Details: 3 μM
Description: Cells from a cell line of interest are cultured in conditions sufficient to yield the number of cells capable of generating enough RNA for subsequent sequencing steps. Cells from the tested cell line are contacted with a compound described herein.
To culture said cells, they are seeded, at appropriate concentrations in a volume of media in a cell culture container and incubated for 4, 5, 6, 7, 8, 9, 10, or more hours. A concentrated solution of compound in a vehicle (e.g., DMSO) is then added in sufficient volume to result in the intended final concentration of the compound, for example 100 nM, 500 nM, 1 μM, 5 μM, 10 μM, 15 μM, 20 μM, or more. The cells may also be treated with vehicle alone, as a control. A number of replicates of each concentration or control may be made (e.g., 2 replicates). The cells are then incubated at a constant temperature appropriate for cell culture of the particular cell line (e.g., 37° C.) for 6, 12, 18, 24, 48, or more hours. After incubation, the growth medium is removed and the cells are washed with the appropriate buffer (e.g., PBS). Cells are then removed from adherence to the cell culture container by treatment with a solution containing trypsin, and the trypsin subsequently quenched with the appropriate volume of buffer (e.g., DMEM-FBS). The cells are then pelleted with gentle centrifugation (e.g., ≤90×g centrifugal force) and resuspended in a buffer to lyse the cells for extraction of RNA. The cell lysates may then be frozen (e.g., at −80° C.) or, alternately, may immediately be used in a procedure to purify the RNA (e.g. by use of the RNEASY PLUS® minikit). The RNA from cell lysates is eluted in the appropriate volume of buffer (e.g., RNEASE-FREE H2O®). The resulting purified RNA may then be sequenced (e.g., using RNASeq) or analyzed using a human exon array (e.g., by GENECHIP® human exon array) to determine changes in the RNA levels in those cells treated with compound compared to those cells treated only with DMSO. The purified RNA may also be quantified by other methods known in the art.
Using the RNA data obtained from sequencing, exon array, or other methods, a statistical analysis can reveal changes in the RNA levels of compound-treated compared with control. For example, t-test p-values may be calculated for the data obtained through sequencing and exon array methods in order to compare compound-treated cells to those treated with the DMSO control. […] Analysis of the sequencing and exon array data may then also yield predictions about the cause of the aberrant amount of an RNA transcript in the cells (e.g., perturbation of RNA splicing, RNA transcription, or RNA stability). These predictions may be further confirmed by methods known in the art. For example, RT-PCR and RT-qPCR may be used to confirm the change in amount of RNA transcripts for one or more particular transcripts of interest.
Following the methods described above in Example 1, PNN 1-46 SMA type I patient-derived fibroblasts were treated with 300 nM or 3 μM Compounds 774 and 808 in 0.5% DMSO.
700,000 cells were seeded in 10 mL of medium (DMEM plus 10% FBS) in a T-75 flask. Cells were allowed to attach for at least 4 hrs, after which 50 μL of a 200× compound solution (100% DMSO) was added to each well, and the plate was incubated at 37° C. for 24 hrs.
At the end of the incubation period, the supernatant was removed and the cells where washed with PBS. TrypLE (Invitrogen) express solution was added (e.g. 1.5 mL per one T75 flask). The flasks were incubated for 3 to 5 min at 37° C. The trypsin was then quenched, e.g., by adding 10 mL DMEM-FBS.
Next, the cells were pelleted using gentle centrifugation without exceeding 90×g centrifugal force. The supernatant was removed and the cell pellet was re-suspended in 600 μL RLT buffer (the RLT buffer was supplemented with beta-mercaptoethanol according to the RNeasy protocol manual) by pipetting up and down until the pellet was completely dissolved […]

## CCc1nc(C)cn2nc(-c3cc(=O)n4cc(C5CCN(C)CC5)cc(C)c4n3)cc12 [Compound 774]
GAS7 NM_201433
  ave Cpd: 774 iFPM
GGCT AK021779
  FC (x + 1): 1.1596
  L2FC (x + 1): 0.214
  L2abs (Cpd-DMSO): −0.63
  abs (Cpd-DMSO): 1 iFPM
  amp FC (x + 1): 1.16
  ave Cpd: 4 iFPM
GGCT NM_024051
  FC (x + 1): 1.7413
  L2FC (x + 1): 0.800
  L2abs (Cpd-DMSO): 8.65
  abs (Cpd-DMSO): 402 iFPM
  amp FC (x + 1): 1.74
  ave Cpd: 944 iFPM
GGCT NM_001199815
  FC (x + 1): 1.6353
  L2FC (x + 1): 0.710
  L2abs (Cpd-DMSO): 1.16
  abs (Cpd-DMSO): 2 iFPM
  amp FC (x + 1): 1.64
  ave Cpd: 5 iFPM
GGCT NM_001199816
  FC (x + 1): 4.0099
  L2FC (x + 1): 2.004
  L2abs (Cpd-DMSO): 5.51
  abs (Cpd-DMSO): 46 iFPM
  amp FC (x + 1): 4.01
  ave Cpd: 60 iFPM
GGCT NM_001199817
  FC (x + 1): 0.2461
  L2FC (x + 1): −2.022
  L2abs (Cpd-DMSO): 1.61
  abs (Cpd-DMSO): 3 iFPM
  amp FC (x + 1): 4.06
  ave Cpd: 0 iFPM
GGCT NR_037669
  FC (x + 1): 0.0433
  L2FC (x + 1): −4.528
  L2abs (Cpd-DMSO): 7.81
  abs (Cpd-DMSO): 224 iFPM
  amp FC (x + 1): 23.07
  ave Cpd: 9 iFPM
GJC1 AK124339
  FC (x + 1): 0.6383
  L2FC (x + 1): −0.648
  L2abs (Cpd-DMSO): 3.69
  abs (Cpd-DMSO): 13 iFPM
  amp FC (x + 1): 1.57
  ave Cpd: 22 iFPM
GJC1 CCDS11487
  FC (x + 1): 0.9189
  L2FC (x + 1): −0.122
  L2abs (Cpd-DMSO): 4.92
  abs (Cpd-DMSO): 30 iFPM
  amp FC (x + 1): 1.09
  ave Cpd: 342 iFPM
GJC1 NM_005497
  FC (x + 1): 1.0836
  L2FC (x + 1): 0.116
  L2abs (Cpd-DMSO): 7.12
  abs (Cpd-DMSO): 139 iFPM
  amp FC (x + 1): 1.08
  ave Cpd: 1804 iFPM
GJC1 NM_001080383
  FC (x + 1): 4.6793
  L2FC (x + 1): 2.226
  L2abs (Cpd-DMSO): 8.14
  abs (Cpd-DMSO): 282 iFPM
  amp FC (x + 1): 4.68
  ave Cpd: 358 iFPM
GPSM2 AB445462
  FC (x + 1): 0.7229
  L2FC (x + 1): −0.468
  L2abs (Cpd-DMSO): 7.09
  abs (Cpd-DMSO): 136 iFPM
  amp FC (x + 1): 1.38
  ave Cpd: 353 iFPM
GPSM2 AK295563
  FC (x + 1): 0.3409
  L2FC (x + 1): −1.552
  L2abs (Cpd-DMSO): 8.69
  abs (Cpd-DMSO): 414 iFPM
  amp FC (x + 1): 2.93
  ave Cpd: 213 iFPM
GPSM2 NM_013296
  FC (x + 1): 0.7819
  L2FC (x + 1): −0.355
  L2abs (Cpd-DMSO): 7.66
  abs (Cpd-DMSO): 203 iFPM
  amp FC (x + 1): 1.28
  ave Cpd: 726 iFPM
GRK6 AK056697
  FC (x + 1): 0.0663
  L2FC (x + 1): −3.915
  L2abs (Cpd-DMSO): 7.15
  abs (Cpd-DMSO): 142 iFPM
  amp FC (x + 1): 15.09
  ave Cpd: 9 iFPM
GRK6 NM_002082
  FC (x + 1): 1.3813
  L2FC (x + 1): 0.466
  L2abs (Cpd-DMSO): 6.31
  abs (Cpd-DMSO): 79 iFPM
  amp FC (x + 1): 1.38
  ave Cpd: 286 iFPM
GRK6 NM_001004105
  FC (x + 1): 1.2832
  L2FC (x + 1): 0.360
  L2abs (Cpd-DMSO): 6.50
  abs (Cpd-DMSO): 90 iFPM
  amp FC (x + 1): 1.28
  ave Cpd: 409 iFPM
GRK6 NM_001004106
  FC (x + 1): 0.6950
  L2FC (x + 1): −0.525
  L2abs (Cpd-DMSO): 7.79
  abs (Cpd-DMSO): 222 iFPM
  amp FC (x + 1): 1.44
  ave Cpd: 504 iFPM
HAS2 NM_005328
  FC (x + 1): 2.2996
  L2FC (x + 1): 1.201
  L2abs (Cpd-DMSO): 9.55
  abs (Cpd-DMSO): 752 iFPM
  amp FC (x + 1): 2.30
  ave Cpd: 1329 iFPM
HAT1 AK309001
  FC (x + 1): 2.7002
  L2FC (x + 1): 1.433
  L2abs (Cpd-DMSO): 2.78
  abs (Cpd-DMSO): 7 iFPM
  amp FC (x + 1): 2.70
  ave Cpd: 10 iFPM
HAT1 NM_003642
  FC (x + 1): 1.2362
  L2FC (x + 1): 0.306
  L2abs (Cpd-DMSO): 9.17
  abs (Cpd-DMSO): 574 iFPM
  amp FC (x + 1): 1.24
  ave Cpd: 3005 iFPM
HAT1 NR_027862
  FC (x + 1): 0.0141
  L2FC (x + 1): −6.153
  L2abs (Cpd-DMSO): 6.13
